Values from PubChem BioAssay AID652243 (Drosophila RNAi Screening Center, 2013)
In all, the deposit lists about 24,000 reagents; below is a random part of those that have a named target and a result. In the full data, 246 (1%) are marked active. 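Plates not normalised; calls are printed but the firefly/Renilla ratio behind them is not deposited; fold cut for lowering reported inconsistently.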 Raw values vary from plate to plate and are shown uncorrected. A plus sign joins genes that one reagent is predicted to hit. No sequences are given here. Not stated in the record: the amount of reagent.

- Purpose: 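Knock-downs that decrease or increase androgen receptor reporter signal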 (primary screen)
- Cell system: Drosophila S2R+ cells
- Reagent: long dsRNA against Drosophila genes
- Timing: 72 h (48 h, then 24 h hormone)
- Challenge: synthetic androgen R1881 at 10 nM for 24 h
- Measurement: 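Per-well raw luminescence of the androgen-driven firefly reporter and of the Renilla control, two replicates each, without normalisation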
- Scale: firefly reporter light: higher = more light from androgen-responsive reporter; Renilla control light: higher = more constitutive control signal (cell number, transfection)
- Call rule: 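Across duplicate plates, a knock-down whose log firefly/Renilla ratio shifted a set fold down or up from the GFP/LacZ control mean was a hit; the downward cut appears as both 1.5 and 3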
- Meaning of the calls: active = hit: reporter lowered or raised; inactive = no hit

target gene	PubChem SID	firefly reporter light, replicate 1	firefly reporter light, replicate 2	Renilla control light, replicate 1	Renilla control light, replicate 2	call
Zpr1	SID104198224	76906	96026	7.77e5	1.00e6	inactive
Hs2st	SID104183140	1.17e6	1.09e6	1.71e6	1.52e6	inactive
l(2)k09848	SID104184686	8.77e5	6.71e5	2.49e6	1.57e6	inactive
mal	SID104200373	82602	69044	5.78e5	6.49e5	inactive
mal	SID104205629	4.55e5	3.13e5	9.11e5	7.89e5	inactive
COX4L	SID104184633	2.46e5	4.23e5	1.75e6	2.46e6	inactive
CG10298	SID104192314	1.19e5	1.03e5	2.28e6	1.20e6	inactive
CG10298	SID104204035	1.05e6	6.01e5	1.07e6	8.05e5	inactive
Acp62F	SID104187928	1.08e5	1.06e5	1.24e6	1.04e6	inactive
Trs33	SID104195782	1.14e5	1.14e5	1.34e6	2.42e6	inactive
sa	SID104191441	5.09e5	5.17e5	3.21e6	3.16e6	inactive
Alms1b + Alms1a	SID104198351	87222	1.28e5	6.85e5	9.47e5	inactive
Alms1b + Alms1a	SID104205960	2.97e5	2.71e5	7.24e5	9.08e5	inactive
CG15916	SID104199532	5.97e5	6.76e5	4.44e6	3.17e6	inactive
ph-d	SID104202548	4.65e5	5.52e5	1.47e6	1.60e6	inactive
ph-d	SID104208280	4.08e5	3.57e5	8.01e5	1.27e6	inactive
CG11458	SID104202721	4.94e5	8.20e5	7.62e5	9.81e5	inactive
MED18	SID104198341	3.68e5	3.06e5	3.98e6	2.76e6	inactive
Drep3	SID104187321	4.27e5	4.13e5	1.68e6	2.73e6	inactive
Drep3	SID104201839	9.42e5	8.55e5	1.33e6	1.15e6	inactive
GNBP1	SID104190961	2.71e5	2.64e5	3.05e6	2.50e6	inactive
GNBP1	SID104201484	8.33e5	7.56e5	2.04e6	1.80e6	inactive
sip1	SID104183401	53495	70206	7.62e5	8.37e5	inactive
sip1	SID104202051	6.39e5	8.23e5	1.87e6	1.45e6	inactive
sip1	SID104206325	2.82e5	2.52e5	4.78e5	5.54e5	inactive
CG9676	SID104199996	2.72e5	2.86e5	3.66e6	2.99e6	inactive
CG34173	SID104216303	1.16e6	9.15e5	1.97e6	1.98e6	inactive
CG3748	SID104182508	95853	1.19e5	1.03e6	1.07e6	inactive
CG3748	SID104208528	3.13e5	2.64e5	1.27e6	1.44e6	inactive
CG3748	SID104216590	4.09e5	3.97e5	1.41e6	1.41e6	inactive
CG7079	SID104195984	1.54e5	2.06e5	3.01e6	3.16e6	inactive
CG7079	SID104208371	5.81e5	6.25e5	1.26e6	1.38e6	inactive
CG11353	SID104187974	5.13e5	8.12e5	1.48e6	2.15e6	inactive
CG13850	SID104194492	61066	38215	4.98e5	4.90e5	inactive
CG31431	SID104194381	2.92e5	3.17e5	2.01e6	3.25e6	inactive
CG31431	SID104216892					inactive
baf	SID104182843	1.16e5	1.19e5	1.86e6	1.72e6	inactive
baf	SID104205518	3.98e5	3.85e5	5.05e5	3.51e5	inactive
CG33235	SID104199433	5.49e5	6.18e5	4.65e6	4.26e6	inactive
mRpL16	SID104198342	97601	81035	1.14e6	6.70e5	inactive
mRpL16	SID104208054	2.94e5	4.77e5	6.38e5	6.38e5	inactive
